# Measurements: article PMC6962355
# Protein sequences, listed by entry. Tags and fused reporters are not part of them.
# UniProt P35222: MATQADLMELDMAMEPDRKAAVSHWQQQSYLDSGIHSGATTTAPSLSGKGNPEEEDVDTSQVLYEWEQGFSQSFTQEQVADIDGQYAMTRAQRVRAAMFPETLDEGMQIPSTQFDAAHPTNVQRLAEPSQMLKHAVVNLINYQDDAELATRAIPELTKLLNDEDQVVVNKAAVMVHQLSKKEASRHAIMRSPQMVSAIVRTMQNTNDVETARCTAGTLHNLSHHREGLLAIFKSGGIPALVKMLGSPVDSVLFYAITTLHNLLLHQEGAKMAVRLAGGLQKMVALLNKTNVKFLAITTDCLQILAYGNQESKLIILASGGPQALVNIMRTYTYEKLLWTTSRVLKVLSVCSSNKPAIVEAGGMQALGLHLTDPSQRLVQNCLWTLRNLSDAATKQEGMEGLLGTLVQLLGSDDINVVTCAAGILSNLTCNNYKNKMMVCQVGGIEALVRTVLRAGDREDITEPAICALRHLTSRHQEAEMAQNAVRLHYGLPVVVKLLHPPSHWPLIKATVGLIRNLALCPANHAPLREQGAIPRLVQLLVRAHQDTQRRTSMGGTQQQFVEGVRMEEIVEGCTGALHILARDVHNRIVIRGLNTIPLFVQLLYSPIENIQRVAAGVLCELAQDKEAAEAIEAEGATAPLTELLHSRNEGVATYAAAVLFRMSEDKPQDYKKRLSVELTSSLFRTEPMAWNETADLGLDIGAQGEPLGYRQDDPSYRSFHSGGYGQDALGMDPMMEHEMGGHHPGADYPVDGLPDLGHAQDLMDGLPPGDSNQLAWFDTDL
# These are yes or no findings as the source states them, for the method shown. In cells and extracts the contact can be indirect. Some results given as binding are weak or reduced against the parent protein; the word gives no strength.
# B1: Cadherin 20 (protein, UniProt Q9HBT6 60-801)
# chain: SWVWNQFFVLEEYTGTDPLYVGKLHSDMDRGDGSIKYILSGEGAGIVFTIDDTTGDIHAIQRLDREERAQYTLRAQALDRRTGRPMEPESEFIIKIQDINDNEPKFLDGPYVATVPEMSPVGTSVIQVTATDADDPTYGNSARVVYSILQGQPYFSVDSKTGVIRTALMNMDREAKEYYEVIIQAKDMGGQLGGLAGTTTVNITLSDVNDNPPRFPQKHYQMSVLESAPISSTVGRVFAKDLDEGINAEMKYTIVDGDGADAFDISTDPNFQVGIITVKKPLSFESKKSYTLKVEGANPHLEMRFLNLGPFQDTTTVHISVEDVDEPPVFEPGFYFVEVPEDVAIGTTIQIISAKDPDVTNNSIRYSIDRSSDPGRFFYVDITTGALMTARPLDREEFSWHNITVLAMEMNNPSQVGSVPVTIKVLDVNDNAPEFPRFYEAFVCENAKAGQLIQTVSAVDQDDPRNGQHFYYSLAPEAANNPNFTIRDNQDNTARILTRRSGFRQQEQSVFHLPILIADSGQPVLSSTGTLTIQVCSCDDDGHVMSCSPEAYMLPVSLSRGALIAILACIFVLLVLVLLILSMRRHRKQPYIIDDEENIHENIVRYDDEGGGEEDTEAFDIAAMWNPREAQAGAAPKTRQDMLPEIESLSRYVPQTCAVNSTVHSYVLAKLYEADMDLWAPPFDSLQTYMFEGDGSVAGSLSSLQSATSDSEQSFDFLTDWGPRFRKLAELYGASEGPAPLW
# Molecular target: β-catenin (human) (UniProt P35222)
# Assay: co-IP; lysates of HEK293T cells co-expressing CDH20 and β-catenin; anti-β-catenin antibody overnight at 4°C, protein A/G-agarose beads 3 h at 4°C, three washes with cell lysis buffer, Western blot
binder,measurement,value
B1,binding,binds
